One purity is given for all peptides; the source may state it once.

The nature of the data set: general procedure: Boc solid-phase peptide synthesis; Boc-Leu-PAM resin; DCC and HOBT. To be noted: conjugation step, 214 nm.
In the case of 2-HO-Ac-Ser-Ser-Ser-Chg-Ser-Leu-Dox, the “final HPLC purity” value was 99% pure. Next, “N-2(R)-2,3-dihydroxypropionyl-Ser-Ser-Ser-Chg-Gln-Ser-Leu-Dox”: 99% pure; “N-2(S)-2,3-dihydroxypropionyl-Ser-Ser-Ser-Chg-Gln-Ser-Leu-Dox”: 99% pure.

For “N-[2-{2-(2-methoxyethoxy)ethoxy}acetyl]-Ser-Ser-Ser-Chg-Gln-Ser-Leu-Dox”, the “final HPLC purity” value is recorded as 99% pure.

The values are drawn from patent US5998362A (priority 1997, dated 1999).
